According to patent publication US20250128084A1, “COMBINED THERAPEUTIC MODALITIES FOR REDUCING INFLAMMATION” (Photorevive, Inc., priority 2023, published 2025):
Entries after “also recorded” stand apart in the source; their conditions may differ. At least one compound was matched to its structure with a doubt left.

How the values were obtained:
acute lung inflammation = experiment: LPS-induced acute lung inflammation in rats, inflammatory response markers (FIGS. 12A-12B); format: in vivo; details: male rats, dexamethasone combined with infrared PBMT, within four days, versus untreated, PBMT alone or dexamethasone alone
[1] = test system: Inflammation induced HEK cell cultures; experiment: LPS-induced inflammation in HEK cell cultures, inflammatory biomarkers by qPCR (FIG. 8E); details: listed as DM

C[C@@H]1C[C@H]2[C@@H]3CCC4=CC(=O)C=C[C@]4(C)[C@@]3(F)[C@@H](O)C[C@]2(C)[C@@]1(O)C(=O)CO [dexamethasone]
recovery from acute lung inflammation (white blood cells, neutrophils) (acute lung inflammation): almost completely recovered
anti-inflammatory effect of DM combined with IR exposure ([1]; LPS-induced cultures, DM added to multiple 730 nm IR exposures over 48 hours (optimized IR protocol)): reduced inflammation to virtually background levels; also recorded: anti-inflammatory effects were significantly enhanced
anti-inflammatory effect of DM by itself ([1]; cell cultures induced for inflammation with LPS, 250 nM DM, no IR): little improvement; also recorded: little effect by itself
